Reference: PubChem BioAssay AID743255 (National Center for Advancing Translational Sciences (NCATS), 2014)
In all, about 390,000 compounds went through this assay and about 910 (0.23%) were called active. Entries that show only a call come without a potency. The inconclusive results got no clear call from the source; some entries with a clear call stand among them for comparison. Calls follow the shape of the dose curve; as a rule, active = well fitted inhibition curve with a large enough effect; inconclusive = small, poorly fitted or top-dose-only effect; inactive = no such curve, though single readings can be large or run the other way. A potency beside an inconclusive call is a rough fit, not a confirmed value.

Sequences of proteins named here, by UniProt entry; tags and fusion partners are left off. A change or cut given only in a name is not applied to a line headed by its entry.
UniProt O94782: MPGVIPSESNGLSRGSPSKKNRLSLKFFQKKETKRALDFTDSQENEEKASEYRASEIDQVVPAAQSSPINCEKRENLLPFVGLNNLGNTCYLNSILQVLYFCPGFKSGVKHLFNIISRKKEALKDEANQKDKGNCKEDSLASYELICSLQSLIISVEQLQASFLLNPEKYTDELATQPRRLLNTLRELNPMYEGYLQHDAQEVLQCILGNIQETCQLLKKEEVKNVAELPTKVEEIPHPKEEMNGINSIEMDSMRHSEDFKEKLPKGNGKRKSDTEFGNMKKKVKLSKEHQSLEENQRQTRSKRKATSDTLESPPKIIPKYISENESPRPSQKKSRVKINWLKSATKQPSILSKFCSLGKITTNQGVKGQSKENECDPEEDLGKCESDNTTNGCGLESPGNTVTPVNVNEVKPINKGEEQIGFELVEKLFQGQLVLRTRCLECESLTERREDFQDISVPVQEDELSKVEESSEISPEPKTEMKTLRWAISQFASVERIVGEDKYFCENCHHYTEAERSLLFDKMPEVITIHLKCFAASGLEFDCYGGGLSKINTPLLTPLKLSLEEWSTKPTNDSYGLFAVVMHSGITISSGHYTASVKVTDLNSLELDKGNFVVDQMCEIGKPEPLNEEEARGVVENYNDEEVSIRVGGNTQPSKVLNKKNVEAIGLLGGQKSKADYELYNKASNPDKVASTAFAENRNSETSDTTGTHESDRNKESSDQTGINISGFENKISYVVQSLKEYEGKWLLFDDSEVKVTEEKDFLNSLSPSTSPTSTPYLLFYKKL

What follows are compounds tested against Ubiquitin carboxyl-terminal hydrolase 1 (Homo sapiens) (UniProt O94782) (assay: Inhibitors of USP1/UAF1: Primary Screen). Settings: recombinant USP1/UAF1, Ub-Rhodamine cleavage fluorescence; series mostly up to 57.1 µM.
Method in brief: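 High-throughput fluorogenic screen: 1nM USP1/UAF1 complex, Ub-Rho substrate 150nM final, 50mM HEPES pH 7.8 with 0.5mM EDTA, 0.1 mg/ml BSA, 1mM TCEP and 0.01% Tween-20.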
Also: nearly all actives have a fitted effect of over 60% in size.
Potency is read from the fitted curve at half-maximal effect.

SMILES	Potency
CC(C)(C)C(=O)N1CCN(c2ccc([N+](=O)[O-])c(NCC3CCCO3)c2)CC1 (stereo not given)	inconclusive: 5.62 µM [inhibitor, partial curve, poor fit]
CCN1CCc2c(sc(-n3cccc3)c2C(CCC(C)C)NC(=O)NCCC(=O)OC)C1 (stereo not given)	inconclusive: 0.891 µM [inhibitor, full curve, poor fit]
COc1ccc(-n2cc(-c3ccccc3)c3c(N4CCOCC4)ncnc32)cc1	inactive
CCOc1cc(/C=C2\C(=O)N(c3nc(-c4ccc(Br)cc4)cs3)N=C2c2ccccc2)ccc1O	inconclusive: 35.5 µM [inhibitor, partial curve]
CCOc1ccccc1OCCCC(=O)Nc1nc2ccccc2[nH]1	inactive
COc1ccc(-c2nc(-c3cccs3)c(-c3cccs3)[nH]2)cc1O	inactive
Cc1[nH]nc(Nc2ccc(Br)cc2)c1[N+](=O)[O-]	inactive
CCOC(=O)C1Nc2ccc(C(=O)O)cc2C2C=CCC12 (stereo not given)	active: 17.8 µM
COC(=O)C1=C(C(=O)OC)[C@@H]2N(Cc3ccccc3)c3ccccc3[C@@]23C[C@@H](C(=O)OC)N(C(=O)CC(C)C)C3=N1	inconclusive: 0.398 µM [inhibitor, full curve, poor fit]
O=[N+]([O-])c1cc(/C=N/N/C(=N/c2ccccn2)c2ccccn2)ccc1O	inconclusive: 44.7 µM [inhibitor, partial curve, poor fit]
CC(=O)N1CN(CCCn2ccnc2)Cc2c1sc1c2CCCC1	inactive
N#CCCN1CCN(C2=NC(=O)/C(=C\c3cccs3)S2)CC1	inconclusive: 15.8 µM [inhibitor, partial curve, poor fit]
COc1ccc(S(=O)(=O)N2CCCCCC2)cc1C(=O)Nc1ccc(C(=O)N(C)C)cc1	inactive
O=C(CSc1nc2ccsc2c(=O)n1-c1ccc(Br)cc1)NCc1ccc(Cl)cc1	inconclusive: 0.708 µM [inhibitor, full curve, poor fit]
O=C(CCN1Cc2ccccc2C1)c1ccc2c(c1)OCCO2	inactive
COc1ccc(-c2cc(C(=O)Nc3c(C)nn(Cc4ccccc4C)c3C)no2)cc1	inactive
O=C(CSc1nnc(-c2cccs2)o1)c1cccs1	inactive
COc1cc(NS(=O)(=O)c2cc3[nH]c(=O)[nH]c3cc2C)cc(OC)c1OC	inconclusive: 5.01 µM [inhibitor, full curve, poor fit]
CCc1ccc(C(=O)c2cn(CC(=O)Nc3ccc(F)cc3)c3ccc(F)cc3c2=O)cc1	inactive
COc1ccc(NC(=O)CSCc2cc(=O)c3cc(Cl)ccc3[nH]2)cc1	inconclusive: 5.62 µM [inhibitor, partial curve]

Look-ups from the list.
Entry of Cc1[nH]nc(Nc2ccc(Br)cc2)c1[N+](=O)[O-] under Potency: inactive
Entry of COC(=O)C1=C(C(=O)OC)[C@@H]2N(Cc3ccccc3)c3ccccc3[C@@]23C[C@@H](C(=O)OC)N(C(=O)CC(C)C)C3=N1 under Potency: inconclusive: 0.398 µM [inhibitor, full curve, poor fit]
